No constants are given. Whether binding was seen depends on the method and setting. For part of these data: In cells and extracts the contact can be indirect. Some entries that bind do so weakly or less than the wild type. For part of these data: Where a sequence is shown, tags or fusion partners need not be part of it. Each block holds one molecule with its values, some of them ahead of it.
Tests used:
[1] = biological target: non-muscle myosin heavy chain II-A (Myh9) (mouse (endogenous in OC-033, BC-7-2 and Bend3)) (UniProt Q8VDD5); assay: native gel or EMSA; 2D BN-PAGE/SDS-PAGE of total BC 7-2 cell lysate (4-15% native gradient gel, then SDS-PAGE), immunoblot with anti-Dlc1, Myh9, Plec and Spectrin antibodies; members of one complex lie on a vertical line
[2] = biological target: T1, Dlc1 (endogenous, constitutively expressed) (mouse (endogenous in Bend3 and BC-7-2)) (UniProt Q9R0Z9); assay: as above
T1 sequence: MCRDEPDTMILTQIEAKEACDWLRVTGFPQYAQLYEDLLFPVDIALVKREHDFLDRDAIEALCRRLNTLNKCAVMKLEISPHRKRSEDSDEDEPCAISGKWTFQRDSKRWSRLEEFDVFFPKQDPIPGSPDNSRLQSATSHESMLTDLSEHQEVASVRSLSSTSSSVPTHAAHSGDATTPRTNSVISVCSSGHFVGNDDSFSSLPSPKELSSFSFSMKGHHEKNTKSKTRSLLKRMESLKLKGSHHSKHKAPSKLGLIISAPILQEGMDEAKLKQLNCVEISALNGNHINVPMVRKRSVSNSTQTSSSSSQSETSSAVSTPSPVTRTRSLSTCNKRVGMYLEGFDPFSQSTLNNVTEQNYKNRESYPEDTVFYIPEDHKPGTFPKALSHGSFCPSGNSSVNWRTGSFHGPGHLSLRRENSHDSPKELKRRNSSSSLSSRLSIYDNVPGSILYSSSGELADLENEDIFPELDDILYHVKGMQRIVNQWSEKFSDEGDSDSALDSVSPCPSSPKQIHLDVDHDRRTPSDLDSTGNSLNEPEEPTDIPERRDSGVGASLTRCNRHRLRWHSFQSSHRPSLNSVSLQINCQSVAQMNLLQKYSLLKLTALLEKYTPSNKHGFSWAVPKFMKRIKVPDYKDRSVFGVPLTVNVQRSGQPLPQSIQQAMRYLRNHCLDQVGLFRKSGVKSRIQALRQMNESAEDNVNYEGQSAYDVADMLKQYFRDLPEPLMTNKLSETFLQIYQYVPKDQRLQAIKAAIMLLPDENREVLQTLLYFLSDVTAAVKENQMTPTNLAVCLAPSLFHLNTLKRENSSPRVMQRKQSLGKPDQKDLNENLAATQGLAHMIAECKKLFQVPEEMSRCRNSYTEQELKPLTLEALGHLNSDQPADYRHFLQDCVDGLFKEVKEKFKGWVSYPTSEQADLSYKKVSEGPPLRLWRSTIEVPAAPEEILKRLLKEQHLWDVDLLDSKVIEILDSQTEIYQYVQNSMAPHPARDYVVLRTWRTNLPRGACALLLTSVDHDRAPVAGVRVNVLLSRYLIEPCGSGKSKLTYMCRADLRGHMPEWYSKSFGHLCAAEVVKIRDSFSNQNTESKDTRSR

Sequences of proteins named here, by UniProt entry; tags and fusion partners are left off.
UniProt Q9QXS1: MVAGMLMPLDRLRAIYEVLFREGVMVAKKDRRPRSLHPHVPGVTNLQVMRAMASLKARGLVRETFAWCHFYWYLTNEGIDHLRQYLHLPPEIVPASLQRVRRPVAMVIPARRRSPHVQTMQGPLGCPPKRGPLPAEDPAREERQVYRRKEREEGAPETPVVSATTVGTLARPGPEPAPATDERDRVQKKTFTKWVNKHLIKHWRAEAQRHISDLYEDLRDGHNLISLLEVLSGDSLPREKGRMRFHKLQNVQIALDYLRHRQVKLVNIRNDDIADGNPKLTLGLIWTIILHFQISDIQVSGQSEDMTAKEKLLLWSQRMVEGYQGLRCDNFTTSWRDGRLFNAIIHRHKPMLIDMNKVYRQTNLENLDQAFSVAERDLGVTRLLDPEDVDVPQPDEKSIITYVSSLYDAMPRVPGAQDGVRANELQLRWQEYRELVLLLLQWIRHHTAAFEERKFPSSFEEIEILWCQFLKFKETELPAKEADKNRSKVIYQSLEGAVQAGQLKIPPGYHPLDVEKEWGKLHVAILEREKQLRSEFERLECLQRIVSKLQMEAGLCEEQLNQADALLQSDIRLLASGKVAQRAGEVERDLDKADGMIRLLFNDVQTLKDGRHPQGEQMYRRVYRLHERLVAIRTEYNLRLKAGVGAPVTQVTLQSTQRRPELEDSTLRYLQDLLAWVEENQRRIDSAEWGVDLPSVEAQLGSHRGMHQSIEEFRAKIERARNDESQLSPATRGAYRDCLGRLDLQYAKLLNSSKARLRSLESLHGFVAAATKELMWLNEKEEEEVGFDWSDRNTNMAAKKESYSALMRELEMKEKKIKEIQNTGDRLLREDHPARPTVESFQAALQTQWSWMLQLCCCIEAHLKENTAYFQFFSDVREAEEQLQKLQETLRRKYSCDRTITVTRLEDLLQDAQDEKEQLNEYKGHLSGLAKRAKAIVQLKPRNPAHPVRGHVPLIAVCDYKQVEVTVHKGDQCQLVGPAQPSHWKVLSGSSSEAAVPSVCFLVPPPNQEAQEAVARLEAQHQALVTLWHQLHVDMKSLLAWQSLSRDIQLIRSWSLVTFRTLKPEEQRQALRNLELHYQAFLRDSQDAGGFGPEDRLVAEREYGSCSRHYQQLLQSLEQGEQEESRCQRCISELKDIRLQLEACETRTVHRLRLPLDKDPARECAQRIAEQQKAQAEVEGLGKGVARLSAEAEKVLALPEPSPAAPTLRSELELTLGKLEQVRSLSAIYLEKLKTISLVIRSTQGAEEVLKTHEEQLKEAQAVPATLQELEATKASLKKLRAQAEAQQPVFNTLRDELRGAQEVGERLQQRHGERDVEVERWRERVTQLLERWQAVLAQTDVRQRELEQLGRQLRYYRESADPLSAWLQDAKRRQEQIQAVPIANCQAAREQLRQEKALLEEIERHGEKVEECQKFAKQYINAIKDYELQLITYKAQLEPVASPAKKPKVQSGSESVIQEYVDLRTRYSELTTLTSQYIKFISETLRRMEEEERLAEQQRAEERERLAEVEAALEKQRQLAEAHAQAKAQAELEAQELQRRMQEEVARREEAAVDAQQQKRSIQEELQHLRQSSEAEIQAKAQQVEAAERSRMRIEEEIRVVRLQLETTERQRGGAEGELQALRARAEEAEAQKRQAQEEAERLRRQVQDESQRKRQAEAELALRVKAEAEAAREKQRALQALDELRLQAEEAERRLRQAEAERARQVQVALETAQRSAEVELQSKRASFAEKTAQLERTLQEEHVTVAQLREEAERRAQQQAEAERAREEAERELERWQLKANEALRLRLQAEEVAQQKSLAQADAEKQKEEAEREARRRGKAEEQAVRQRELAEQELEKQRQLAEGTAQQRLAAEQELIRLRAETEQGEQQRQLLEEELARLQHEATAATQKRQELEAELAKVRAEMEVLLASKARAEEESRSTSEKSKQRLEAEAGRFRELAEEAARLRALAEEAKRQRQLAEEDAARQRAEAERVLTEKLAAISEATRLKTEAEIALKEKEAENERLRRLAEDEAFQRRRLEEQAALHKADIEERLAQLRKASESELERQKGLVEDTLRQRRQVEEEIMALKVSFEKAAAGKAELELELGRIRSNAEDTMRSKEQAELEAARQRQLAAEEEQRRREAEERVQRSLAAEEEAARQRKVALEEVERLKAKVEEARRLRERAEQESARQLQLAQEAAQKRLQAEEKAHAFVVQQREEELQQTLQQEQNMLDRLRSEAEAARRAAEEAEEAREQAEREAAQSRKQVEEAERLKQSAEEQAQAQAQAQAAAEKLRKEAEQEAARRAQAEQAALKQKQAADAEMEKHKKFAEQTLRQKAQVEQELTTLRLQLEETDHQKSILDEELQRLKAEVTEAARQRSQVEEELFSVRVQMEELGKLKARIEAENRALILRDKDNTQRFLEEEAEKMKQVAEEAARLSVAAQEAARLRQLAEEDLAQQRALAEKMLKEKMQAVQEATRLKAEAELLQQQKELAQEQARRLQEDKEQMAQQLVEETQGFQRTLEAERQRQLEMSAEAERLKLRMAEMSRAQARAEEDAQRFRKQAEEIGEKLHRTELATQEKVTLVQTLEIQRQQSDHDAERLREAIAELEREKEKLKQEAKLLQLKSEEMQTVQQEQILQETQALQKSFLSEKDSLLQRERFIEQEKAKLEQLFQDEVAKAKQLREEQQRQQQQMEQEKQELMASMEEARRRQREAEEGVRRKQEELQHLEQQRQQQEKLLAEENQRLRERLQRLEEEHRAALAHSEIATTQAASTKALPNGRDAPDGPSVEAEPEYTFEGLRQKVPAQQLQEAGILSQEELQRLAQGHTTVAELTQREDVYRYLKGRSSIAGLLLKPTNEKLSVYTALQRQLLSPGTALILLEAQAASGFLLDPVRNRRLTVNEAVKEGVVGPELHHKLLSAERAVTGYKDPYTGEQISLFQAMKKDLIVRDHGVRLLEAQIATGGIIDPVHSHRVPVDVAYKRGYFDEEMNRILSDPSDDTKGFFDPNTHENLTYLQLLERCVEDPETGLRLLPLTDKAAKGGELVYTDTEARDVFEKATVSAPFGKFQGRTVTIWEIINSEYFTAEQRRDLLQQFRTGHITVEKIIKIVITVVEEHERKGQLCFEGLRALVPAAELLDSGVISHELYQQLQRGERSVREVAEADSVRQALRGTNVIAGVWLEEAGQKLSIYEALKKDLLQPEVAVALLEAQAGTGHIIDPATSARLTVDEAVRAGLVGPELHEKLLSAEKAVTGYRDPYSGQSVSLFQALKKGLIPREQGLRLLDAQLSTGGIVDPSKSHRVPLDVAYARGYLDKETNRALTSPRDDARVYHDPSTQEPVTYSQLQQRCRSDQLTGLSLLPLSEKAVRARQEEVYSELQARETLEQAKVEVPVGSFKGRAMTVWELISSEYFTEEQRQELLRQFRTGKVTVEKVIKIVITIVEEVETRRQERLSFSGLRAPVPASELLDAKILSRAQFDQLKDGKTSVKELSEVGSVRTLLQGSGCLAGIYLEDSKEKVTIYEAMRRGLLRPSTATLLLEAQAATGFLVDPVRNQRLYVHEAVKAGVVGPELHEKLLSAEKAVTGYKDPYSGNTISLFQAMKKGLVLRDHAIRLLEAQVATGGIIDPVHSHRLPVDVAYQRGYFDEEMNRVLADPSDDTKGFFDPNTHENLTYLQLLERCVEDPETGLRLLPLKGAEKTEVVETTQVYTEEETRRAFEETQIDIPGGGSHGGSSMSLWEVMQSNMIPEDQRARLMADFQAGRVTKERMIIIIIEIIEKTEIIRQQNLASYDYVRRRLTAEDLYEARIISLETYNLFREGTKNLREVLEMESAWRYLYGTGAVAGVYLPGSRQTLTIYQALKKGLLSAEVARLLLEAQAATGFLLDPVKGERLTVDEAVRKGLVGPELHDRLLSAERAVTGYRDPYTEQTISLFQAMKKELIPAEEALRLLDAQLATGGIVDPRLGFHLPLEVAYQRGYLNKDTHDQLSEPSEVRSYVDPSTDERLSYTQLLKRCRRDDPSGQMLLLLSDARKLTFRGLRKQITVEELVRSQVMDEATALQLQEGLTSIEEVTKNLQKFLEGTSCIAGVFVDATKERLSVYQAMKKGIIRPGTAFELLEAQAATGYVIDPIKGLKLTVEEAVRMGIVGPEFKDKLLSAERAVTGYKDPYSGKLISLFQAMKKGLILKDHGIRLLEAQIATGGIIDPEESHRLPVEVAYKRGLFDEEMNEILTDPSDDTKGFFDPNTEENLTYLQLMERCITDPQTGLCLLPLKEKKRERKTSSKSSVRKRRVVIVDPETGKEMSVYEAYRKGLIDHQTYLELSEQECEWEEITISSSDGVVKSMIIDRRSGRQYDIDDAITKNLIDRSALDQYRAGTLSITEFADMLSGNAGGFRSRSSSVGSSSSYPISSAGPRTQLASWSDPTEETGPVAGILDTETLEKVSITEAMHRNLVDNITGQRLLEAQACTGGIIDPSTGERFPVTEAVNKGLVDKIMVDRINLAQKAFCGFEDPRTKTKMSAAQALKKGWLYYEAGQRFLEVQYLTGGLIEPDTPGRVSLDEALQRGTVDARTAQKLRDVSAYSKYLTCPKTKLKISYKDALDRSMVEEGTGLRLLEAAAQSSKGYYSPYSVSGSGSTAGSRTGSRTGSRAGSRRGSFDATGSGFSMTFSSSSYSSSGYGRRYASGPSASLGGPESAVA

[3] = biological target: T2, Halo-tagged Dlc1 isoform 2 (mouse) (UniProt Q9R0Z9); assay: pull-down; Halo-tagged Dlc1 isoforms transiently transfected in OC-033 cells; eluates of the Halo-resin pull-down run on SDS-PAGE and immunoblotted for Myh9, Plec and Spna2
T2 sequence: T1 sequence

[4] = biological target: non-muscle myosin heavy chain II-A (Myh9) (mouse (endogenous in OC-033, BC-7-2 and Bend3)) (UniProt Q8VDD5); assay: co-IP; reciprocal co-immunoprecipitation with anti-Dlc1 and anti-Myh9 antibodies from pre-cleared Bend3 cell lysate, endogenous proteins, immunoblot

binding [1]: no binding | binding [2]: binds | binding [3]: binds
Molecule: alpha spectrin 1 (Sptan1 also known as Spna2 and fodrin) (from UniProt P16546 1-2472)

binding [2]: binds | binding [3]: binds
Molecule: plectin (Plec) (from UniProt Q9QXS1 1-4691)

binding [4]: binds
B1: Dlc1 (endogenous, constitutively expressed) (protein, UniProt Q9R0Z9 1-1092)
chain: T1 sequence
